PubChem BioAssay AID652243 – Drosophila RNAi Screening Center – 2013

- Test: 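Fly regulators of androgen-dependent reporter output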 (primary screen)
- System: Drosophila S2R+ cells
- Knock-down reagent: long dsRNA against Drosophila genes
- Duration: 72 h (48 h, then 24 h hormone)
- Conditions: synthetic androgen R1881 at 10 nM for 24 h
- Detection: 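Per-well raw luminescence of the androgen-driven firefly reporter and of the Renilla control, two replicates each, without normalisation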
- Reading the numbers: firefly reporter light: higher = more light from androgen-responsive reporter; Renilla control light: higher = more constitutive control signal (cell number, transfection)
- Rule for the call: 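Across duplicate plates, a knock-down whose log firefly/Renilla ratio shifted a set fold down or up from the GFP/LacZ control mean was a hit; the downward cut appears as both 1.5 and 3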
- Meaning of the calls: active = hit: reporter lowered or raised; inactive = no hit
In all, the deposit lists about 24,000 reagents; shown is an unselected part of those with a known target gene and a result. In the full data, 246 (1%) were called active. 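Plates not normalised; calls are printed but the firefly/Renilla ratio behind them is not deposited; fold cut for lowering reported inconsistently.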 Raw values vary from plate to plate and are shown uncorrected. The numbers tell different reagents against one gene apart. A plus sign joins genes that one reagent is predicted to hit. No sequences are given here. The record does not give: the amount of reagent.

| firefly reporter light, replicate 1 | firefly reporter light, replicate 2 | Renilla control light, replicate 1 | Renilla control light, replicate 2 | Call | predicted target | reagent |
| --- | --- | --- | --- | --- | --- | --- |
| 4.51e5 | 1.83e5 | 5.80e5 | 3.16e5 | inactive | CG11334 | 1 |
| 2.49e5 | 2.13e5 | 1.92e6 | 2.94e6 | inactive | CG11334 | 2 |
| 1.05e6 | 7.81e5 | 1.70e6 | 1.90e6 | inactive | CG32448 | 1 |
| 95308 | 91762 | 1.59e6 | 2.03e6 | inactive | CG31267 | 1 |
| 54912 | 41919 | 3.20e5 | 3.57e5 | inactive | ND-39 (NADH dehydrogenase (ubiquinone) 39 kDa subunit) | 1 |
| 3.62e5 | 7.25e5 | 1.27e6 | 1.48e6 | inactive | ND-39 (NADH dehydrogenase (ubiquinone) 39 kDa subunit) | 2 |
| 76684 | 34158 | 1.29e6 | 1.28e6 | inactive | ro (rough) | 1 |
| 4.49e5 | 2.79e5 | 1.48e6 | 4.45e5 | inactive | ro (rough) | 2 |
| 2.44e5 | 4.51e5 | 2.08e6 | 2.08e6 | inactive | CG18538 | 1 |
| 9.04e5 | 1.11e6 | 1.23e6 | 1.27e6 | inactive | RagC-D (Ras-related GTP binding C/D) | 1 |
| 91673 | 92303 | 6.77e5 | 8.44e5 | inactive | CG8010 | 1 |
| 1.91e5 | 2.33e5 | 3.49e5 | 4.53e5 | inactive | CG8010 | 2 |
| 1.16e6 | 1.11e6 | 1.17e6 | 1.11e6 | inactive | FAM21 (Family with sequence similarity 21) | 1 |
| 2.08e5 | 2.15e5 | 6.77e5 | 5.64e5 | inactive | FAM21 (Family with sequence similarity 21) | 2 |
| 6.45e5 | 6.18e5 | 1.88e6 | 1.90e6 | inactive | FAM21 (Family with sequence similarity 21) | 3 |
| 1.26e5 | 97804 | 5.14e5 | 3.66e5 | inactive | CG12446 | 1 |
| 42754 | 48358 | 8.62e5 | 7.43e5 | inactive | CG15186 | 1 |
| 4.84e5 | 4.60e5 | 6.41e5 | 7.49e5 | inactive | CG15186 | 2 |
| 4.84e5 | 4.89e5 | 54542 | 80649 | inactive | Scr (Sex combs reduced) | 1 |
| 5.10e5 | 4.66e5 | 1.24e6 | 1.02e6 | inactive | Scr (Sex combs reduced) | 2 |
| 1.31e5 | 1.27e5 | 2.60e6 | 2.33e6 | inactive | jumu (jumeau) | 1 |
| 2.16e5 | 2.41e5 | 2.29e6 | 2.31e6 | inactive | CG11839 | 1 |
| 6.21e5 | 5.27e5 | 1.97e6 | 1.66e6 | inactive | lncRNA:CR32690 (long non-coding RNA:CR32690) | 1 |
| 3.15e5 | 2.77e5 | 7.27e5 | 9.08e5 | inactive | lncRNA:CR32690 (long non-coding RNA:CR32690) | 2 |
| 1.05e5 | 1.19e5 | 2.29e6 | 1.55e6 | inactive | CG6912 | 1 |

Already shown: an excerpt of the list.
| firefly reporter light, replicate 1 | firefly reporter light, replicate 2 | Renilla control light, replicate 1 | Renilla control light, replicate 2 | Call | predicted target | reagent |
| --- | --- | --- | --- | --- | --- | --- |
| 42754 | 48358 | 8.62e5 | 7.43e5 | inactive | CG15186 | 1 |
| 4.84e5 | 4.60e5 | 6.41e5 | 7.49e5 | inactive | CG15186 | 2 |
| 4.84e5 | 4.89e5 | 54542 | 80649 | inactive | Scr (Sex combs reduced) | 1 |
| 5.10e5 | 4.66e5 | 1.24e6 | 1.02e6 | inactive | Scr (Sex combs reduced) | 2 |
| 1.31e5 | 1.27e5 | 2.60e6 | 2.33e6 | inactive | jumu (jumeau) | 1 |
| 2.16e5 | 2.41e5 | 2.29e6 | 2.31e6 | inactive | CG11839 | 1 |
| 6.21e5 | 5.27e5 | 1.97e6 | 1.66e6 | inactive | lncRNA:CR32690 (long non-coding RNA:CR32690) | 1 |
| 3.15e5 | 2.77e5 | 7.27e5 | 9.08e5 | inactive | lncRNA:CR32690 (long non-coding RNA:CR32690) | 2 |
| 1.05e5 | 1.19e5 | 2.29e6 | 1.55e6 | inactive | CG6912 | 1 |

Continued.
| firefly reporter light, replicate 1 | firefly reporter light, replicate 2 | Renilla control light, replicate 1 | Renilla control light, replicate 2 | Call | predicted target | reagent |
| --- | --- | --- | --- | --- | --- | --- |
| 3.23e5 | 3.58e5 | 2.64e6 | 3.06e6 | inactive | CG17568 | 1 |
| 70942 | 47807 | 4.71e5 | 3.36e5 | inactive | nero | 1 |
| 1.43e6 | 5.44e5 | 1.21e6 | 9.69e5 | inactive | Rop (Ras opposite) | 1 |
| 3.17e5 | 2.26e5 | 8.23e5 | 6.18e5 | inactive | Rop (Ras opposite) | 2 |
| 2.48e5 | 3.10e5 | 1.78e6 | 1.61e6 | inactive | CG11630 | 1 |
| 1.39e5 | 1.59e5 | 3.58e5 | 3.46e5 | inactive | Pgant9 (Polypeptide N-Acetylgalactosaminyltransferase 9) | 1 |
| 1.53e5 | 1.44e5 | 2.38e6 | 2.38e6 | inactive | Pgant9 (Polypeptide N-Acetylgalactosaminyltransferase 9) | 2 |
| 1.44e5 | 1.22e5 | 2.63e6 | 2.63e6 | inactive | Pgant9 (Polypeptide N-Acetylgalactosaminyltransferase 9) | 3 |
| 96517 | 1.26e5 | 1.62e6 | 1.62e6 | inactive | Pgant9 (Polypeptide N-Acetylgalactosaminyltransferase 9) | 4 |
| 1.67e5 | 1.48e5 | 3.01e6 | 3.01e6 | inactive | Pgant9 (Polypeptide N-Acetylgalactosaminyltransferase 9) | 5 |
| 1.15e5 | 1.14e5 | 1.74e6 | 1.74e6 | inactive | Pgant9 (Polypeptide N-Acetylgalactosaminyltransferase 9) | 6 |
| 3.90e5 | 2.79e5 | 2.87e6 | 2.35e6 | inactive | CG42541 | 1 |
| 4.20e5 | 3.94e5 | 3.65e6 | 2.90e6 | inactive | CG42541 | 2 |
| 8.06e5 | 8.24e5 | 1.15e6 | 1.28e6 | inactive | CG42541 | 3 |
| 5.64e5 | 6.35e5 | 7.92e5 | 6.61e5 | inactive | CG42541 | 4 |
| 59811 | 83982 | 1.36e6 | 1.36e6 | inactive | CG12963 | 1 |
| 6.45e5 | 7.60e5 | 1.37e6 | 9.56e5 | inactive | AstA-R1 (Allatostatin A receptor 1) | 1 |
| 7.57e5 | 7.70e5 | 6.03e6 | 5.31e6 | inactive | AstA-R1 (Allatostatin A receptor 1) | 2 |
| 59344 | 77420 | 3.57e5 | 4.04e5 | inactive | spas (spastin) | 1 |
| 36315 | 48677 | 5.79e5 | 5.56e5 | inactive | tx (taxi) | 1 |
| 3.65e5 | 3.83e5 | 3.91e5 | 5.43e5 | inactive | tx (taxi) | 2 |
| 1.02e5 | 80139 | 8.44e5 | 4.47e5 | inactive | ATPsynC (ATP synthase, subunit C) | 1 |
| 2.44e5 | 2.58e5 | 2.70e6 | 3.23e6 | inactive | RhoU | 1 |
| 5.70e5 | 7.03e5 | 1.60e6 | 1.28e6 | inactive | RhoU | 2 |
| 1.04e6 | 6.08e5 | 3.27e6 | 1.57e6 | inactive | RhoU | 3 |
| 5.59e5 | 9.11e5 | 8.58e5 | 1.75e6 | inactive | RhoU | 4 |
| 6.61e5 | 1.00e6 | 7.24e5 | 1.22e6 | inactive | RhoU | 5 |
| 2.78e5 | 6.42e5 | 8.91e5 | 1.13e6 | inactive | RhoU | 6 |
| 1.65e5 | 1.63e5 | 2.55e6 | 2.21e6 | inactive | DptA (Diptericin A) | 1 |
| 1.29e5 | 1.07e5 | 2.30e6 | 2.60e6 | inactive | CG34112 | 1 |
| 50415 | 50987 | 1.11e6 | 1.11e6 | inactive | Jhe (Juvenile hormone esterase) | 1 |
| 9.46e5 | 8.68e5 | 1.36e6 | 1.49e6 | inactive | Jhe (Juvenile hormone esterase) | 2 |
| 1.13e5 | 1.36e5 | 1.34e6 | 2.29e6 | inactive | Npc2c (Niemann-Pick type C-2c) | 1 |
| 4.67e5 | 5.34e5 | 1.89e6 | 1.35e6 | inactive | Npc2c (Niemann-Pick type C-2c) | 2 |
| 1.89e5 | 2.00e5 | 1.37e6 | 1.59e6 | inactive | tud (tudor) | 1 |
| 7.07e5 | 8.69e5 | 8.37e5 | 9.58e5 | inactive | CG43333 | 1 |
| 3.21e5 | 2.61e5 | 6.28e5 | 4.92e5 | inactive | CG43333 | 2 |
| 1.23e5 | 1.07e5 | 1.20e6 | 1.26e6 | active | CG31140 | 1 |
| 1.46e5 | 2.01e5 | 2.81e6 | 2.56e6 | inactive | CG31140 | 2 |
| – | – | – | – | inactive | CG31140 | 3 |
| 4.65e5 | 3.83e5 | 3.79e6 | 3.66e6 | inactive | snRNP-U1-70K (small ribonucleoprotein particle U1 subunit 70K) | 1 |
| 8.65e5 | 6.97e5 | 2.04e6 | 1.66e6 | inactive | snRNP-U1-70K (small ribonucleoprotein particle U1 subunit 70K) | 2 |
| 5.29e5 | 4.74e5 | 8.84e5 | 8.27e5 | inactive | snRNP-U1-70K (small ribonucleoprotein particle U1 subunit 70K) | 3 |
| 1.51e6 | 7.62e5 | 1.50e6 | 8.78e5 | inactive | CG8001 | 1 |
| 4.71e5 | 4.26e5 | 3.75e6 | 3.27e6 | inactive | CG12986 | 1 |
| 1.09e5 | 1.31e5 | 1.25e6 | 1.40e6 | inactive | CG11413 + CG4622 | 1 |
| 2.28e5 | 2.40e5 | 5.81e5 | 4.51e5 | inactive | CG11413 + CG4622 | 2 |
| 4.51e5 | 6.41e5 | 4.53e6 | 3.82e6 | inactive | Adar (Adenosine deaminase acting on RNA) | 1 |
| 1.07e5 | 1.06e5 | 7.27e5 | 8.18e5 | inactive | Septin4 (Septin 4) | 1 |
| 1.21e6 | 1.35e6 | 1.47e6 | 1.45e6 | inactive | Septin4 (Septin 4) | 2 |
